Test [1] deals with T1, BsGpsB (yeast two-hybrid fusion) (Bacillus subtilis NCIB 3610) (UniProt P0CI74).
T1 sequence: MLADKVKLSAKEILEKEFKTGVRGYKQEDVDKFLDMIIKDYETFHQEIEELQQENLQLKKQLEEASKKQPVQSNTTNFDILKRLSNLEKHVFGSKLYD
Briefly: two-hybrid; Gal4 DNA-binding domain bait and Gal4 activation domain prey in yeast PJ69-4A; growth on SC-His-Leu-Trp (HIS3 reporter), 3 days at 30°C.

Test [2] concerns the target T2, GST-tagged BsFlhG (Bacillus subtilis NCIB 3610) (UniProt P40742).
T2 sequence: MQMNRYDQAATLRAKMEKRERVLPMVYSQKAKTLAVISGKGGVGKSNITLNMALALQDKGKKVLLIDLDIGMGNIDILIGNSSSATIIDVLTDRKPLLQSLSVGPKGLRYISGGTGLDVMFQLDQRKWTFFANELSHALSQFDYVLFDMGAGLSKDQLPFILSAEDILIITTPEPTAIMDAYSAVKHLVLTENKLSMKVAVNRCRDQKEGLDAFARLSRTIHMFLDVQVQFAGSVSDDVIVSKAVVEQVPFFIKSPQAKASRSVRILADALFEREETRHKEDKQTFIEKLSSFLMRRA
As to the kind of experiment: pull-down; GST pulldown, nucleotide not stated for these panels (Figure S6, Figure 3b); GST-tagged bait on glutathione agarose beads; SEC buffer, room temperature; Coomassie-stained SDS-PAGE; both purified.

No constants are given. Whether binding was seen depends on the method and setting. Some results given as binding are weak or reduced against the parent protein; the word gives no strength. Sequences can lack the tags named with a protein.

B1: BsMinD (yeast two-hybrid fusion) (protein, UniProt Q01464 1-268)
chain: MGEAIVITSGKGGVGKTTTSANLGTALAILGKRVCLVDTDIGLRNLDVVMGLENRIIYDLVDVVEGRCKMHQALVKDKRFDDLLYLMPAAQTSDKTAVAPEQIKNMVQELKQEFDYVIIDCPAGIEQGYKNAVSGADKAIVVTTPEISAVRDADRIIGLLEQEENIEPPRLVVNRIRNHLMKNGDTMDIDEIVQHLSIDLLGIVADDDEVIKASNHGEPIAMDPKNRASIAYRNIARRILGESVPLQVLEEQNKGMMAKIKSFFGVRS
Turning to B1, the binding result in test [1] is given as “no binding”.

B2: BsFlhG (yeast two-hybrid fusion) (protein, UniProt P40742 1-298)
chain: T2 sequence
Regarding B2, the binding entry in test [1] is “binds”.

B3: BsGpsB (recombinant prey) (protein, UniProt P0CI74 1-98)
chain: T1 sequence
B3: the binding result in test [2] is on record as “binds”.
